The list shows only some results of the screen, not a fair sample: it gathers tests that were run many times, whatever their T/C, doses with no T/C, and many T/C values between a quarter and a half above the control. Further doses and runs are listed elsewhere. T/C: endpoint of the treated group in % of that of the vehicle group. Some entries give survivors of the animals treated and no T/C: the source files T/C as zero there, which appears to mark a toxic dose or a test without result, not a measured value. Some doses without a T/C left all or most animals alive at the check, yet need not have been tolerated: the source hardly ever lists a survival T/C far under the control, and the zero likely stands for such cases as well. Counts of survivors are from the toxicity check (mostly the fifth day) where no day follows; animals may have died later. Schedule codes are those of the source, read here as Q, the interval in days (D) or hours (H), X, the number of doses. Some schedules carry Z or #; the key to these is not given. Some structures stand for samples that the source files as different forms (salt, stereo form or complex); doses refer to the form tested. Some entries were tested several times; the values are given in rising order. Where survival is the endpoint, the PubChem record calls one and a half times the control and up active, and a quarter to a half above the control has no call in these data; cut-offs in other NCI protocols can differ.
Test system: L1210 leukemia ip in BDF1 mice, survival T/C
Experiment: NCI In Vivo Anticancer Drug Screen. Data for tumor model L1210 Leukemia (intraperitoneal) in B6D2F1 (BDF1) mice
Settings: higher T/C = longer survival
[1] = T/C endpoint: mean survival time, dose: 400.0 mg/kg/injection, schedule: Q04DX003 (ip), vehicle: saline

For CO[C@H](C(=O)[C@@H](O)[C@@H](C)O)[C@@H]1Cc2cc3cc(OC4CC(OC5CC(O)C(O)C(C)O5)C(O)C(C)O4)c(C)c(O)c3c(O)c2C(=O)[C@H]1OC1CC(OC2CC(OC3CC(C)(O)C(O)C(C)O3)C(O)C(C)O2)C(O)C(C)O1 (stereo partly drawn), the survivor count (T/C endpoint: mean survival time, dose: 1.0 mg/kg/injection, schedule: Q01DX001 (ip), vehicle: water) was 0 of 6, the survivor count (T/C endpoint: mean survival time, dose: 1.0 mg/kg/injection, schedule: Q01DX001 (iv), vehicle: water) was 2 of 4 and the survivor count (T/C endpoint: mean survival time, dose: 2.0 mg/kg/injection, schedule: Q01DX001 (ip), vehicle: water) was 1 of 6. The survivor count (T/C endpoint: mean survival time, dose: 2.0 mg/kg/injection, schedule: Q01DX Z (ip), vehicle: saline) was 2 of 6, the survivor count (T/C endpoint: mean survival time, dose: 2.5 mg/kg/injection, schedule: Q01DX001 (ip), vehicle: saline) was 1 of 6 and the survivor count (T/C endpoint: mean survival time, dose: 4.0 mg/kg/injection, schedule: Q01DX001 (ip), vehicle: saline) was 2 of 4. The survivor count (T/C endpoint: mean survival time, dose: 5.0 mg/kg/injection, schedule: Q01DX001 (ip), vehicle: saline) was 3 of 6, the survivor count (T/C endpoint: mean survival time, dose: 10.0 mg/kg/injection, schedule: Q01DX001 (ip), vehicle: saline) was 2 of 6 and the survivor count (T/C endpoint: mean survival time, dose: 20.0 mg/kg/injection, schedule: Q01DX001 (ip), vehicle: saline) was 0 of 4 and 1 of 6. The survivor count (T/C endpoint: mean survival time, dose: 40.0 mg/kg/injection, schedule: Q01DX001 (ip), vehicle: saline) was 0 of 4, the survivor count (T/C endpoint: mean survival time, dose: 50.0 mg/kg/injection, schedule: Q01DX001 (ip), vehicle: saline) was 0 of 4 and the survivor count (T/C endpoint: mean survival time, dose: 80.0 mg/kg/injection, schedule: Q01DX001 (ip), vehicle: saline) was 0 of 4. The survivor count (T/C endpoint: mean survival time, dose: 100.0 mg/kg/injection, schedule: Q01DX001 (ip), vehicle: saline) was 0 of 4, the survivor count (T/C endpoint: mean survival time, dose: 200.0 mg/kg/injection, schedule: Q01DX001 (ip), vehicle: saline) was 0 of 4 and the survivor count (T/C endpoint: mean survival time, dose: 400.0 mg/kg/injection, schedule: Q01DX001 (ip), vehicle: saline) was 0 of 4. For the same compound, the survivor count (T/C endpoint: mean survival time, dose: 2000.0 micrograms/kg/injection, schedule: Q01DX009 (ip), vehicle: clinical formulation) was 3 of 10, the survivor count (T/C endpoint: mean survival time, dose: 2000.0 micrograms/kg/injection, schedule: Q01DX009 (ip), vehicle: saline) was 2 of 10 and the T/C (T/C endpoint: median survival time, dose: 1.0 mg/kg/injection, schedule: Q01DX009 (ip), vehicle: saline) was 127 and 137 % of control. For the same compound, the survivor count (T/C endpoint: median survival time, dose: 2.0 mg/kg/injection, schedule: Q01DX009 (ip), vehicle: saline) was 2 of 6 and 3 of 6.

With Cc1cccnc1NC(=O)/C=C/C(=O)O the survivor count (T/C endpoint: mean survival time, dose: 75.0 mg/kg/injection, schedule: Q01DX009 (ip), vehicle: alcohol) was 1 of 6, the survivor count (T/C endpoint: mean survival time, dose: 100.0 mg/kg/injection, schedule: Q04DX003 (ip), vehicle: acetone) was 1 of 6 and the survivor count (T/C endpoint: mean survival time, dose: 115.0 mg/kg/injection, schedule: Q01DX009 (ip), vehicle: alcohol) was 0 of 6. For the same compound, the survivor count (T/C endpoint: mean survival time, dose: 170.0 mg/kg/injection, schedule: Q01DX009 (ip), vehicle: alcohol) was 0 of 6, the survivor count (T/C endpoint: mean survival time, dose: 200.0 mg/kg/injection, schedule: Q04DX003 (ip), vehicle: acetone) was 0 of 6 and the survivor count (T/C endpoint: mean survival time, dose: 400.0 mg/kg/injection, schedule: Q04DX003 (ip), vehicle: acetone) was 0 of 6.

For [Cl][Pt+2][Cl].[NH-]C1CCCC1.[NH-]C1CCCC1, the T/C (T/C endpoint: mean survival time, dose: 80.0 mg/kg/injection, schedule: Q04DX003 (ip), vehicle: Klucel (hydroxypropylcellulose) (HPC)) was 141 % of control, the survivor count (T/C endpoint: mean survival time, dose: 320.0 mg/kg/injection, schedule: Q04DX003 (ip), vehicle: Klucel (hydroxypropylcellulose) (HPC)) was 5 of 6 and the T/C (T/C endpoint: mean survival time, dose: 640.0 mg/kg/injection, schedule: Q04DX003 (ip), vehicle: Klucel (hydroxypropylcellulose) (HPC)) was 127 % of control.

For S=C=NCc1ccccc1Cl, the survivor count (T/C endpoint: mean survival time, dose: 100.0 mg/kg/injection, schedule: Q01DX009 (ip), vehicle: saline) was 6 of 6, the survivor count (T/C endpoint: mean survival time, dose: 200.0 mg/kg/injection, schedule: Q01DX009 (ip), vehicle: saline) was 5 of 6 and the survivor count (T/C endpoint: mean survival time, dose: 400.0 mg/kg/injection, schedule: Q01DX009 (ip), vehicle: saline) was 5 of 6.

With CN(CCc1cnc2nc(N)nc(N)c2n1)c1ccc(C(=O)NC(CCC(=O)O)C(=O)O)cc1 (stereo not drawn) the T/C (T/C endpoint: mean survival time, dose: 6.25 mg/kg/injection, schedule: Q01DX009 (ip), vehicle: Klucel (hydroxypropylcellulose) (HPC)) was 128 % of control, the T/C (T/C endpoint: mean survival time, dose: 50.0 mg/kg/injection, schedule: Q01DX009 (ip), vehicle: Klucel (hydroxypropylcellulose) (HPC)) was 133 % of control and the T/C [1] was 126 % of control.

CC(C)CCCC(C)C1CCC2C3CC(=O)NC4CC(Cl)CCC4(C)C3CCC12C (stereo not drawn) was tested, and the survivor count (T/C endpoint: mean survival time, dose: 200.0 mg/kg/injection, schedule: Q04DX003 (ip), vehicle: saline) was 6 of 6 and the survivor count [1] was 6 of 6.

For COC(=O)c1ccc(OC(=O)Nc2ccc([N+](=O)[O-])cc2OC)cc1, the survivor count (T/C endpoint: mean survival time, dose: 200.0 mg/kg/injection, schedule: Q01DX009 (ip), vehicle: Klucel (hydroxypropylcellulose) (HPC)) was 5 of 6 and the survivor count (T/C endpoint: mean survival time, dose: 400.0 mg/kg/injection, schedule: Q01DX009 (ip), vehicle: Klucel (hydroxypropylcellulose) (HPC)) was 2 of 6.
